From patent US20100021918A1, “METHOD FOR ASSAYING ACTION OF ANTITUMOR AGENT USING SPLICING DEFECTS AS INDEX” (Eisai R&D Management Co., Ltd., priority 2007, published 2010)
This continues a long series; more values of the same kind are listed elsewhere.

Tested on: human colon carcinoma cell strain WiDr
Test: Microarray analysis (2), reviewed conditions, intron expression, Table 3
Assay type: cell-based
Method: WiDr cells were first suspended in RPMI1640 medium (containing 10% FBS, penicillin, and streptomycin) and seeded in a 10 cm dish (2×10^6 cells/dish). After an overnight culture in an incubator with 5% carbon dioxide gas at 37° C., the medium was changed with medium containing 14 nM of (8E,12E,14E)-7-((4-cycloheptylpiperazin-1-yl)carbonyl)oxy-3,6,16,21-tetrahydroxy-6,10,12,16,20-pentamethyl-18,19-epoxytricosa-8,12,14-trien-11-olide or containing vehicle alone. After cultured for additional six hours, TRI reagent (SIGMA) were added to the cells and the cells were harvested. RNA was purified in accordance with the protocol of TRI reagent, followed by further purification with RNeasy (QIAGEN). Absorbance at 260 nm was measured to quantify an amount of RNA. This experiment was repeated three times and RNA samples (n=3) were prepared.
Ribosomal RNA was removed from 1 μg of each total RNA of control cells (n=3) and cells with the treatment (n=3) by using RiboMinus Human/Mouse Transcriptome Isolation Kit (Invitrogen). Single stranded cDNA synthesis, double stranded cDNA synthesis, cRNA synthesis, second single stranded cDNA synthesis, cDNA fragmentation, and cDNA labeling in order were carried out for the total RNA from which ribosomal RNA was removed, by using GeneChip Whole Transcript Sense Target Labeling and Control Reagents (Affymetrix) to make a cDNA probe. The cDNA probe was used for hybridization with Human Exon 1.0 ST Array (Affymetrix). The array was washed and stained, and luminescence intensity was measured by a scanner.
Analysis conditions were reviewed in the data used in Example 3. Genes containing increased introns upon treatment with (8E,12E,14E)-7-((4-cycloheptylpiperazin-1-yl)carbonyl)oxy-3,6,16,21-tetrahydroxy-6,10,12,16,20-pentamethyl-18,19-epoxytricosa-8,12,14-trien-11-olide were identified.
In order to consider the analysis conditions, variations in the data from the samples with identical conditions were studied. […] It turned out that, by analyzing under conditions where the expression level was more than 100 and change in the expression level was more than five times, a probe set with increased expression can be extracted.
Probe sets showing that the normalized change in the level expression of the probe set in the group with the treatment was more than 5 times; the expression level of the probe set and the gene in the group with the treatment were more than 100; and probe set annotation was “extended, full, free”, were picked out. Welch's t-test was conducted with the probe sets extracted for the treated group and the control group to determine a p and q value. A gene containing the probe sets with the q value of less than 5% was determined as a candidate gene with increased expression level of the intron regions (Table 3).
In Table 3, for each gene evaluated, gene name (Gene Name), abbreviated name (Gene Symbol), accession number (Accession), alias name (Synonym), transcription cluster number in Human Exon 1.0 ST Array (Human Exon 1.0 ST Array Transcript Cluster ID), chromosome number (Chromosome), type of strand (Strand), start region (Start), stop region (Stop), and change in expression level (Fold Change) were respectively shown.

CCC(O)C(C)C1OC1CC(C)(O)/C=C/C=C(\C)C1OC(=O)CC(O)CCC(C)(O)C(OC(=O)N2CCN(C3CCCCCC3)CC2)/C=C/C1C (centres unmarked) [E7107, (8E,12E,14E)-7-((4-cycloheptylpiperazin-1-yl)carbonyl)oxy-3,6,16,21-tetrahydroxy-6,10,12,16,20-pentamethyl-18,19-epoxytricosa-8,12,14-trien-11-olide]
Fold Change (gene TFG, Transcript Cluster ID 2633773, intron expression, treated vs control): 9.22
Fold Change (gene TGFBR2, change in expression level, treated vs control): 6.21
Fold Change (gene THOC1, change in expression level, treated vs control): 6.36
Fold Change (gene THOC5, change in expression level, treated vs control): 14.15
Fold Change (gene THRAP2, change in expression level, treated vs control): 5.96
Fold Change (gene TIMM23, change in expression level, treated vs control): 28.32
Fold Change (gene TIMP1, change in expression level, treated vs control): 11.27
Fold Change (gene TINF2, change in expression level, treated vs control): 11.82
Fold Change (gene TJP1, intron expression, treated vs control): 7.30
Fold Change (gene TJP2, Transcript Cluster ID 3173880): 5.27
Fold Change (gene TLOC1, change in expression level, treated vs control): 6.09
Fold Change (gene TM2D2, change in expression level, treated vs control): 6.38
Fold Change (gene TM4SF1, Transcript Cluster ID 2700365): 5.34
Fold Change (gene TMEM5, Transcript Cluster ID 3419585): 5.20
Fold Change (gene TMEM87A, change in expression level, treated vs control): 6.46
Fold Change (gene TMEM123, change in expression level, treated vs control): 6.18
Fold Change (gene TMEM138, change in expression level, treated vs control): 6.02
Fold Change (gene TMEM170, Transcript Cluster ID 3699581): 5.15
Fold Change (gene TMEPAI, intron expression, treated vs control): 6.87
Fold Change (gene TMSB10, Transcript Cluster ID 2491271, intron expression, treated vs control): 9.85
Fold Change (gene TNFRSF1A, Transcript Cluster ID 3441849, intron expression, treated vs control): 9.60
Fold Change (gene TNKS1BP1, change in expression level, treated vs control): 5.98
Fold Change (gene TNS4, Transcript Cluster ID 3756262, intron expression, treated vs control): 9.51
Fold Change (gene TOMM70A, intron expression, treated vs control): 6.76
Fold Change (gene TOP2A, intron expression, treated vs control): 7.15
Fold Change (gene TOPBP1, Transcript Cluster ID 2695941): 5.07
Fold Change (gene TPM1, change in expression level, treated vs control): 6.21
Fold Change (gene TPX2, intron expression, treated vs control): 7.37
Fold Change (gene TRAF6, change in expression level, treated vs control): 6.29
Fold Change (gene TRIM26, Transcript Cluster ID 2948259): 5.13
Fold Change (gene TRIM44, Transcript Cluster ID 3326842, intron expression, treated vs control): 9.03
Fold Change (gene TRIO, intron expression, treated vs control): 7.00
Fold Change (gene TRMU, intron expression, treated vs control): 7.29
Fold Change (gene TROVE2, intron expression, treated vs control): 6.62
Fold Change (gene TSC1, change in expression level, treated vs control): 6.27
Fold Change (gene TSC22D2, intron expression, treated vs control): 6.91
Fold Change (gene TSPAN5, Transcript Cluster ID 2778856, intron expression, treated vs control): 9.53
Fold Change (gene TSPAN14, Transcript Cluster ID 3254521): 5.30
Fold Change (gene TSR1, change in expression level, treated vs control): 44.77
Fold Change (gene TTC17, change in expression level, treated vs control): 6.13
Fold Change (gene TUBB, Transcript Cluster ID 2901913): 5.08
Fold Change (gene TXNIP, intron expression, treated vs control): 6.72
Fold Change (gene TXNL1, Transcript Cluster ID 3809324): 5.37
Fold Change (gene TXNRD1, intron expression, treated vs control): 7.39
Fold Change (gene UBB // C17orf45, change in expression level, treated vs control): 6.08
Fold Change (gene UBC, intron expression, treated vs control): 6.61
Fold Change (gene UBE2C // PAK3, Transcript Cluster ID 3887049): 5.22
Fold Change (gene UBE2M // UBE2MP1, intron expression, treated vs control): 6.54
Fold Change (gene UBE3A, change in expression level, treated vs control): 19.35
Fold Change (gene UBL3, Transcript Cluster ID 3507798): 5.42
Fold Change (gene UBQLN1 // DIDO1, Transcript Cluster ID 3212143): 5.44
Fold Change (gene UCHL3, Transcript Cluster ID 3494102): 5.08
Fold Change (gene UPF1, Transcript Cluster ID 3825383): 5.34
Fold Change (gene USF1 // ARHGAP30, intron expression, treated vs control): 7.17
Fold Change (gene USP7, change in expression level, treated vs control): 6.30
Fold Change (gene USP10, intron expression, treated vs control): 7.27
Fold Change (gene USP15, change in expression level, treated vs control): 6.41
Fold Change (gene USP38, change in expression level, treated vs control): 13.94
Fold Change (gene USP47, change in expression level, treated vs control): 12.32
Fold Change (gene USP53, intron expression, treated vs control): 7.35
Fold Change (gene USPL1, Transcript Cluster ID 3484005): 5.20
Fold Change (gene UTP6, Transcript Cluster ID 3752437, intron expression, treated vs control): 10.30
Fold Change (gene UTP15, intron expression, treated vs control): 6.57
Fold Change (gene VAMP3, intron expression, treated vs control): 7.35
Fold Change (gene VDAC2, intron expression, treated vs control): 7.41
Fold Change (gene VEZF1, change in expression level, treated vs control): 6.34
Fold Change (gene VIL2, change in expression level, treated vs control): 12.62
Fold Change (gene WASF2, intron expression, treated vs control): 6.81
Fold Change (gene WDR36, Transcript Cluster ID 2823820, intron expression, treated vs control): 9.03
Fold Change (gene WDR46, intron expression, treated vs control): 7.16
Fold Change (gene WDR73, change in expression level, treated vs control): 20.03
Fold Change (gene WDR74, Transcript Cluster ID 3376235, intron expression, treated vs control): 10.13
Fold Change (gene WEE1, change in expression level, treated vs control): 12.54
Fold Change (gene WHSC1, Transcript Cluster ID 2715076): 5.23
Fold Change (gene WNK1, intron expression, treated vs control): 6.98
Fold Change (gene WNT11, intron expression, treated vs control): 6.53
Fold Change (gene WTAP // ACAT2, Transcript Cluster ID 2934089): 5.04
Fold Change (gene XBP1, change in expression level, treated vs control): 6.25
Fold Change (gene XPO4, Transcript Cluster ID 3504434): 5.43
Fold Change (gene XPO6, Transcript Cluster ID 3686339): 5.34
Fold Change (gene YAP1, change in expression level, treated vs control): 11.01
Fold Change (gene YES1, Transcript Cluster ID 3795942, intron expression, treated vs control): 9.48
Fold Change (gene YTHDF2, Transcript Cluster ID 2327630): 5.15
Fold Change (gene YTHDF3, intron expression, treated vs control): 6.55
Fold Change (gene YWHAB, change in expression level, treated vs control): 13.72
Fold Change (gene ZBTB7A, Transcript Cluster ID 3846594): 5.24
Fold Change (gene ZBTB11, intron expression, treated vs control): 7.02
Fold Change (gene ZDHHC5, Transcript Cluster ID 3331433): 5.14
Fold Change (gene ZFP91 // CNTF, Transcript Cluster ID 3331730, intron expression, treated vs control): 9.54
Fold Change (gene ZNF146 // ZNF268, Transcript Cluster ID 3831260): 5.40
Fold Change (gene ZNF192, change in expression level, treated vs control): 6.23
Fold Change (gene ZNF227 // ZNF155, Transcript Cluster ID 3835544): 5.21
Fold Change (gene ZNF289, intron expression, treated vs control): 6.84
Fold Change (gene ZNF313, change in expression level, treated vs control): 6.39
Fold Change (gene ZNF317 // ZNF658, change in expression level, treated vs control): 19.64
Fold Change (gene ZNF330, intron expression, treated vs control): 6.87
Fold Change (gene ZNF410, Transcript Cluster ID 3543884, intron expression, treated vs control): 10.23
Fold Change (gene ZNF512, Transcript Cluster ID 2474651): 5.40
Fold Change (gene ZNF592, change in expression level, treated vs control): 6.44
Fold Change (gene ZNF707, Transcript Cluster ID 3119765): 5.39
Fold Change (gene ZNF787, Transcript Cluster ID 3871730): 5.18
Fold Change (gene ZNFX1 // GSDML, Transcript Cluster ID 3908831): 5.44
Fold Change (gene ZRANB2, change in expression level, treated vs control): 6.03
Fold Change (gene bA16L21.2.1 // GNG10, Transcript Cluster ID 3184940, intron expression, treated vs control): 10.05
